No constants are given. Whether binding was seen depends on the method and setting. In cells and extracts the contact can be indirect. A result given as binding can be weak or reduced; the word gives no strength. Tags and fused reporters may be left off the sequences shown.

The text below walks through data of article PMC1435744.

This assay concerns the target Flag-tagged C-terminus portion of mr-s containing the SAM domain (mouse) (UniProt Q1RNF8). In words: co-IP; HEK293T co-transfected with HA- and Flag-tagged constructs; 1 mg lysate precipitated with anti-Flag antibody and protein G-Sepharose, 4°C, 2 hrs, 150 mM NaCl, 1% Nonidet P-40; detected by anti-HA blot.

B1: full-length mr-s, HA-tagged or Flag-tagged, expressed in HEK293T cells (protein, UniProt Q1RNF8 1-542)
chain: MPEHPRHCDFQRGNVEIGLGPGGDLLGKRLSCPCITSHCSSEKKARSKDPQATSLLPELESTMAPEDHYHQLMSALSEASSFEETQRLYHLGIPSHDLLRVRQEVATATLRGPSGLEVHLPSSTADHRRKQGLVQRREGAVPAAATSFSEREMSQPPPLLSPQNAAHITMSSHLRPPFLGMPTAVCQTPGFSFLPSAQAEMLARQQELLRKQSLARLEMSELLRQKELGSVHRPLLPAPEVALHIPEGPDELQRRGSMLVLKHSSAPLLALPPQGPPGPGPPIPPKESARSRSEKGSLGVQPSQPKETTGAGLWAQEVSEEPSKDSDGEDPETAAAREGTSTPSQVPAGGTRAEGRGLLSGSTLPPPLPLGFPCGAVSPYFHTGTMGGLFTDEETTTLEDVNKWTVDDVCNFVGGLSGCGEYARVFGEQGIDGETLPLLTEEHLLNTMGLKLGPALKIRAQVAKRLGRVFYMASFPVALPLQPPSLQAPELSPGHQPLSPATTTSPYEGTHLPTGQASPKQENGSGTIALLSGAPDPSQLLQ
As to B1, the binding entry was “binds”.

B2: mr-s ΔSAM (amino acids 1 to 400), HA-tagged or Flag-tagged, expressed in HEK293T cells (domain or fragment, UniProt Q1RNF8 1-400)
chain: MPEHPRHCDFQRGNVEIGLGPGGDLLGKRLSCPCITSHCSSEKKARSKDPQATSLLPELESTMAPEDHYHQLMSALSEASSFEETQRLYHLGIPSHDLLRVRQEVATATLRGPSGLEVHLPSSTADHRRKQGLVQRREGAVPAAATSFSEREMSQPPPLLSPQNAAHITMSSHLRPPFLGMPTAVCQTPGFSFLPSAQAEMLARQQELLRKQSLARLEMSELLRQKELGSVHRPLLPAPEVALHIPEGPDELQRRGSMLVLKHSSAPLLALPPQGPPGPGPPIPPKESARSRSEKGSLGVQPSQPKETTGAGLWAQEVSEEPSKDSDGEDPETAAAREGTSTPSQVPAGGTRAEGRGLLSGSTLPPPLPLGFPCGAVSPYFHTGTMGGLFTDEETTTLED
With B2, the binding entry is “no binding”.
